The other results are listed elsewhere or left out. These are further read-outs of the screen, such as a control signal, another cell line or another target. No call is given for them. The list favours compounds with an active or inconclusive main result. Potencies come from curve fits of mixed quality, noted in brackets.

One may read the AC50 as the midpoint of the concentration-response curve, whichever way the signal moves.

The nature of this assay: IkB Signaling. Particulars: ABC-DLBCL IkBa-CBG/CBR dual luciferase ratio (green luciferase fused to IkBa over red control in OCI-Ly3 lymphoma cells), 4 h; measured here: control luc red channel unless noted. A digest of the protocol:
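In this assay, an IκBα–CBG68 fusion accumulates when IKK-driven degradation is blocked; native CBR normalizes for cell number. OCI-Ly3 cells were treated 4 h with compound and doxycycline, then green and red light read after Chroma-Glo addition.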
On to `O=C1CSC2(C(=O)N(Cc3ccccc3)c3ccccc32)N1c1cccc(F)c1` (stereo unspecified), for which the AC50 was 39.8 µM [falling, single point]. `CCc1ccc(NC(=O)COC(=O)CCCC2=NS(=O)(=O)c3ccccc3N2)cc1`: the AC50 is 2.51 µM [rising, full curve]. Turning to `Cc1cc(C)c(NC(=O)CSc2nc3ccccc3c3nc(CCn4cncc4C)nn23)c(C)c1`, the AC50 is 0.00631 µM [rising, full curve, poor fit]. With `Cn1c(C(=O)N2CCN(c3nc4ccccc4s3)CC2)cc2sccc21` the figure was 39.8 µM [rising, single point] [measured here: IkB-luc green channel]; with `CCN(CC)CCCNc1cc(-c2ccccc2)nc(C)n1`, 20 µM [falling, single point]. For `CCOc1ccc2nc(N3CCN(C(=O)c4ccc(S(=O)(=O)CC)cc4)CC3)sc2c1`, the AC50 was 39.8 µM [falling, single point]. With `Cc1ccc(/C=C/C(=O)Nc2nc(-c3cccs3)ns2)cc1` the figure was 0.251 µM [rising, full curve, poor fit]; with `COc1ccc(-n2cc(C(=O)N(CCN(C)C)Cc3ccccc3)c3ccccc3c2=O)cc1`, 15.8 µM [falling, partial curve]. Turning to `C=C(CC)C(=O)c1ccc(OCC(=O)O)c(Cl)c1Cl`, the AC50 is 12.6 µM [falling, partial curve]. As to `COc1cc(C(=O)N(Cc2ccc(F)cc2)Cc2ccco2)cc(OC)c1OC`, the AC50 is 39.8 µM [falling, single point]. With `COc1cc(OC)cc(C(=O)Nc2cc(-c3nc4ccccc4[nH]3)ccc2C)c1`, the AC50 is 25.1 µM [falling, single point]. With `O=C(/C=C/c1ccco1)Nc1ccc(F)cc1` the figure was 20 µM [falling, partial curve]; with `COC(=O)c1c(SC)nc2ccccc2c1OCc1ccc(Br)cc1`, 10 µM [falling, partial curve].

`O=c1c2sccc2n(Cc2cc(=O)n3ccccc3n2)c(=O)n1-c1cc(F)ccc1F`: the AC50 is 15.8 µM [rising, single point]. `CC1=C(C(=O)Nc2cc(Cl)ccc2C)C2(CCCCC2)OC1=O`: the AC50 was 20 µM [falling, partial curve, poor fit]. With `Cc1cc(C)cc(NC(=O)CCc2nnc3n(C)c(=O)c4sccc4n23)c1`, the AC50 was 10 µM [falling, partial curve].

For the compound `Cc1cc(C)n2nc(CNC(=O)c3ccccc3Cl)nc2n1`, the AC50 was 12.6 µM [falling, single point].

As for `COC(=O)c1c(-c2ccco2)csc1NC(=O)C1CC=CCC1C(=O)O` (stereo unspecified), the AC50 was 20 µM [falling, partial curve]. Take `COc1ccc2c(C)c(CCC(=O)NCc3ccc(C)cc3)c(=O)oc2c1`: the AC50 was 20 µM [falling, partial curve]. For the compound `CCC(CC)C(=O)OCc1cc(=O)n2nc(C3CCCCC3)sc2n1`, the AC50 is 25.1 µM [falling, partial curve].

In the case of `Cc1ccc(-c2c(C(=O)N3CCN(c4cccc(C)c4)C(C)C3)oc(=O)c3ccccc23)cc1` (stereo unspecified), the AC50 was 3.16 µM [falling, full curve].

On to `COC(=O)C1=C(C)N=C2SCCC(=O)N2C1c1ccc(OCc2ccccc2)c(OC)c1` (stereo unspecified), for which the AC50 is 25.1 µM [falling, single point]. `CC(C)(C)OC(=O)N1CCC(c2c(C(=O)NCCc3ccsc3)cnn2-c2ccccc2Cl)CC1`: the AC50 was 39.8 µM [falling, partial curve, poor fit].

On to `CCOc1ccc(N2C(=O)CS(=O)(=O)C23C(=O)N(Cc2cccc(Cl)c2)c2ccccc23)cc1` (stereo unspecified), for which the AC50 is 7.94 µM [falling, partial curve]. As for `CCc1c(C)nc2nncn2c1Nc1ccc(Cl)cc1`, the AC50 was 5.01 µM [falling, full curve]. In the case of `COc1ccc(-n2c(=O)c3c4c(sc3n(Cc3ccc(C)cc3C)c2=O)CCC4)c(OC)c1`, the AC50 was 12.6 µM [falling, partial curve, poor fit]. `CCC(C(=O)Nc1ccc(C(C)=O)cc1)n1cnc2nc3c(cc2c1=O)CCCC3` (stereo unspecified): the AC50 is 0.0398 µM [rising, full curve, poor fit]. As for `COc1ccc(OC)c(CNC(=O)Cn2ncc3c([nH]c4ccc(C)cc43)c2=O)c1`, the AC50 was 0.631 µM [rising, full curve]. Turning to `O=C(NCCC1=CCCCC1)C1CCN(Cc2cnn(-c3ccccc3)c2-n2cccc2)CC1`, the AC50 is 20 µM [falling, partial curve]. Regarding `CCCCCCCCCCCCCCCC(=O)O[C@H](CC(=O)O)C[N+](C)(C)C`, the AC50 was 25.1 µM [rising, partial curve]. On to `COc1ccc(N2CC(NC(=O)COc3ccc(F)cc3)CC2=O)cc1OC` (stereo unspecified), for which the AC50 was 0.2 µM [falling, full curve, poor fit]. On to `CCOC(=O)C(=O)NCC(c1cccnc1)N1CCN(c2ccccc2)CC1` (stereo unspecified), for which the AC50 was 25.1 µM [falling, single point].

As for `CCC1CN(C(=O)NCc2ccccc2)c2cc(Cl)ccc2O1` (stereo unspecified), the AC50 is 15.8 µM [falling, partial curve]. As to `Cc1ccc(-c2nc3c(c(SCC(=O)N(C)c4ccccc4)n2)Cc2c(CO)cnc(C)c2O3)cc1`, the AC50 was 5.01 µM [rising, partial curve]. Consider `COc1ccc(S(=O)(=O)NCCc2nnc3ccc(SCC(=O)Nc4cc(C)cc(C)c4)nn23)cc1`, for which the AC50 was 25.1 µM [falling, single point]. For the compound `Cn1c(=O)n(C)c2cc(N3CCOCC3)c(NC(=O)c3ccc(Cl)cc3)cc21`, the AC50 was 3.16 µM [rising, partial curve, poor fit]. For `O=C(NCc1ccc2c(c1)CCN2C(=O)c1ccncc1)c1ccccc1Cl`, the half-maximal activity concentration (AC50) was 25.1 µM [falling, partial curve]. Consider `Cc1ccc(Cl)cc1N1CCN(C(=O)c2ccc(NS(=O)(=O)c3c(C)noc3C)cc2)CC1`, for which the AC50 is 12.6 µM [falling, partial curve]. `COc1ccccc1CCNC(=O)C(=O)NCC(c1ccco1)S(=O)(=O)c1ccc(F)cc1` (stereo unspecified): the AC50 was 25.1 µM [falling, single point]. Take `COc1ccc(OC)c(CCNC(=O)c2cc3cccc4c3n2CC(C)S4)c1` (stereo unspecified): the AC50 is 20 µM [falling, partial curve]. Consider `COc1cccc(N2CCN(C(=O)C3CCCN(S(=O)(=O)c4ccc5c(c4)oc(=O)n5C)C3)CC2)c1` (stereo unspecified), for which the AC50 was 20 µM [falling, partial curve, poor fit]. Consider `Cc1nc2ccc(C(=O)O)cc2c2c1CC(C)S2` (stereo unspecified), for which the AC50 was 1.26 µM [falling, full curve] [measured here: IkB-luc green channel]. As to `COc1cccc(CC(=O)Nc2ccc(-c3nc4ccccc4s3)cc2Cl)c1`, the AC50 was 6.31 µM [rising, single point]. Then `Cc1ccnc(NS(=O)(=O)c2ccc(NC(=O)C3CCCCC3)cc2)n1`, with 6.31 µM [falling, partial curve]; and `Cc1ccc2nc(-c3ccc(F)cc3)c(NC(C)(C)CC(C)(C)C)n2c1`, with 10 µM [falling, partial curve]. With `CC(C)NC(=O)c1ccc2c(c1)N(Cc1cccc(Cl)c1)C(=O)c1ccccc1S2=O` (stereo unspecified), the concentration at half-maximal activity (AC50) was 0.01 µM [rising, full curve]. As to `COc1ccc(NC(=O)CN2CCN(Cc3ccccc3Cl)S2(=O)=O)cc1Cl`, the AC50 is 20 µM [falling, partial curve]. For the compound `CCCN1C(=O)C(O)(CC(=O)c2ccc(C(C)C)cc2)c2ccccc21` (stereo unspecified), the AC50 was 39.8 µM [falling, single point].

Turning to `CN1CCN(Cc2c(O)ccc3cc(-c4ccc(Cl)cc4)c(=O)oc23)CC1`, the AC50 was 6.31 µM [falling, partial curve, poor fit]. Consider `Cc1nc2c(-c3ccc(F)cc3)c(C)nn2c(C)c1CCC(=O)NC(C)CCc1ccco1` (stereo unspecified), for which the AC50 was 12.6 µM [falling, partial curve].

Take `CCN(C(=O)Cn1c(=O)oc2cc(S(=O)(=O)N3CCCCC3)ccc21)c1ccccc1`: the AC50 was 39.8 µM [falling, single point]. Turning to `CCc1cccc(NC(=O)CCc2c(C)nc3c(-c4ccccc4)c(C)nn3c2C)c1`, the AC50 was 12.6 µM [falling, partial curve].

For the compound `Cc1ccc(NC(=O)Cn2c(=O)n(CC(=O)NCCc3ccccc3)c(=O)c3ccccc32)cc1C`, the AC50 was 15.8 µM [falling, partial curve]. Turning to `CCCn1nc(-c2nnc(-c3ccc(C)c(C)c3)o2)c2ccccc2c1=O`, the AC50 is 0.631 µM [falling, full curve, poor fit].

Turning to `Cc1ccc(S(=O)(=O)c2cn(CC(=O)Nc3ccc(F)cc3)c3cc4c(cc3c2=O)OCO4)cc1`, the AC50 was 15.8 µM [falling, partial curve]. As to `Cc1ccc2cccc(NC(=O)c3cccc4c(Br)cccc34)c2n1`, the AC50 was 0.158 µM [rising, full curve]. For `COc1ccc(C)cc1NC(=O)C(=O)NCC(c1cccnc1)N1CCN(c2ccccc2F)CC1` (stereo unspecified), the AC50 was 25.1 µM [falling, single point]. As for `Cc1cc(C)c2nc(N3CCCC(C(=O)NCc4ccccc4F)C3)sc2c1` (stereo unspecified), the AC50 is 10 µM [falling, partial curve]. For `Cc1ccccc1C(=O)Nc1cc2c(cc1N1CCCCC1)n(C)c(=O)n2C`, the AC50 is 3.16 µM [rising, partial curve, poor fit]. On to `c1ccc2c(Nc3ccncc3)nc(-c3ccoc3)nc2c1`, for which the concentration at half-maximal activity (AC50) is 3.16 µM [falling, partial curve] [measured here: IkB-luc green channel]. `COc1cccc(C(=O)Oc2c(Sc3ccc(C)cc3)c(C)nn2C(C)(C)C)c1OC`: the AC50 was 3.16 µM [falling, full curve].

The record behind these values is PubChem BioAssay AID445 (National Center for Advancing Translational Sciences (NCATS), 2006).
